This is one part of the list. Single values are uncertain, as repeats are few or missing.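 Imaging used 1,536-well plates; nuclei positive for cleaved PARP by antibody were divided by total DNA-stained nuclei to yield the apoptosis fraction. Doses for screening kept most cells viable, and cell lines differ markedly in resting and induced cleaved-PARP levels.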
What follows are compounds tested on SkMel28 (assay: cleaved PARP positive nuclei fraction relative to DMSO control; melanoma cells; higher = more apoptosis). Details: library dose: low library concentration; 72 h.

Q: How did the “cleaved PARP positive nuclei fraction” value turn out when `O=C(/C=C/c1cccnc1)NCCCCC1CCN(C(=O)c2ccccc2)CC1` + C#Cc1cccc(Nc2ncnc3cc(OCCOC)c(OCCOC)cc23)c1 [erlotinib] (first compound 0.01 µM, partner dose 0.8 µM) was run?
A: 84.6%

Q: For `Cc1cn(-c2cc(NC(=O)c3ccc(C)c(Nc4nccc(-c5cccnc5)n4)c3)cc(C(F)(F)F)c2)cn1` [nilotinib] + CO[C@H]1C[C@@H]2CC[C@@H](C)[C@@](O)(O2)C(=O)C(=O)N2CCCC[C@H]2C(=O)O[C@H]([C@H](C)C[C@@H]2CC[C@@H](OCCO)[C@H](OC)C2)CC(=O)[C@H](C)/C=C(\C)[C@@H](O)[C@@H](OC)C(=O)[C@H](C)C[C@H](C)/C=C/C=C/C=C/1C [everolimus] (first compound 0.2 µM, partner dose 0.02 µM), which “cleaved PARP positive nuclei fraction” value is on record?
A: 368%

Q: `O=C(Nc1cc(C(F)(F)F)cc(C(F)(F)F)c1)c1cc(Cl)ccc1O` + Cn1c(Nc2ccc(C(F)(F)F)cc2)nc2cc(Oc3ccnc(-c4ncc(C(F)(F)F)[nH]4)c3)ccc21 [CHIR265] (first compound 0.016 µM, partner dose 0.08 µM) was tested. Which “cleaved PARP positive nuclei fraction” value did it give?
A: 167%

Q: With `O=c1[nH]nc(Sc2ncc([N+](=O)[O-])s2)n1-c1ccc2c(c1)OCCO2` + OCc1c[nH]c2ccccc12 [Indole-3-carbinol] (first compound 0.2 µM, partner dose 0.8 µM) as the compound, how does the “cleaved PARP positive nuclei fraction” value read?
A: 37.8%

Q: How did the “cleaved PARP positive nuclei fraction” value turn out when `O=C(/C=C/c1cccnc1)NCCCCC1CCN(C(=O)c2ccccc2)CC1` + CO[C@H]1C[C@@H]2CC[C@@H](C)[C@@](O)(O2)C(=O)C(=O)N2CCCC[C@H]2C(=O)O[C@H]([C@H](C)C[C@@H]2CC[C@@H](OCCO)[C@H](OC)C2)CC(=O)[C@H](C)/C=C(\C)[C@@H](O)[C@@H](OC)C(=O)[C@H](C)C[C@H](C)/C=C/C=C/C=C/1C [everolimus] (first compound 0.01 µM, partner dose 0.02 µM) was run?
A: 122%

Q: How did the “cleaved PARP positive nuclei fraction” value turn out when `O=c1[nH]nc(Sc2ncc([N+](=O)[O-])s2)n1-c1ccc2c(c1)OCCO2` + CS(=O)(=O)CCNCc1ccc(-c2ccc3ncnc(Nc4ccc(OCc5cccc(F)c5)c(Cl)c4)c3c2)o1 [lapatinib] (first compound 0.2 µM, partner dose 0.8 µM) was run?
A: 64.8%

Q: With `COc1cc([C@@H]2c3cc4c(cc3[C@@H](O[C@@H]3O[C@@H]5CO[C@@H](C)O[C@H]5[C@H](O)[C@H]3O)[C@H]3COC(=O)[C@H]23)OCO4)cc(OC)c1O` [etoposide] + CO[C@H]1C[C@@H]2CC[C@@H](C)[C@@](O)(O2)C(=O)C(=O)N2CCCC[C@H]2C(=O)O[C@H]([C@H](C)C[C@@H]2CC[C@@H](OCCO)[C@H](OC)C2)CC(=O)[C@H](C)/C=C(\C)[C@@H](O)[C@@H](OC)C(=O)[C@H](C)C[C@H](C)/C=C/C=C/C=C/1C [everolimus] (first compound 0.02 µM, partner dose 0.02 µM) as the compound, how does the “cleaved PARP positive nuclei fraction” value read?
A: 147%

Q: How did the “cleaved PARP positive nuclei fraction” value turn out when `Cc1cn(-c2cc(NC(=O)c3ccc(C)c(Nc4nccc(-c5cccnc5)n4)c3)cc(C(F)(F)F)c2)cn1` [nilotinib] + Nc1cccc2c1CN(C1CCC(=O)NC1=O)C2=O [lenalidomide] (first compound 0.2 µM, partner dose 1 µM) was run?
A: 38%

Q: `Cc1ccc(Nc2nccc(N(C)c3ccc4c(C)n(C)nc4c3)n2)cc1S(N)(=O)=O` [Pazopanib] + CNC(=O)c1cc(Oc2ccc(NC(=O)Nc3ccc(Cl)c(C(F)(F)F)c3)cc2)ccn1 [sorafenib] (first compound 0.4 µM, partner dose 0.4 µM) was tested. Which “cleaved PARP positive nuclei fraction” value did it give?
A: 68.2%

Q: For `O=c1[nH]nc(Sc2ncc([N+](=O)[O-])s2)n1-c1ccc2c(c1)OCCO2` + CS(=O)(=O)c1ccc(C(=O)Nc2ccc(Cl)c(-c3ccccn3)c2)c(Cl)c1 [vismodegib] (first compound 0.2 µM, partner dose 1 µM), which “cleaved PARP positive nuclei fraction” value is on record?
A: 107%
